Test results reported in publication PMC5473221.
Results are given in words; binding and its absence hold for the method and conditions named. Binding seen in cells or lysates may run through a third protein. Some entries that bind do so weakly or less than the wild type.

Protein sequences, listed by entry. Tags and fused reporters are not part of them.
UniProt Q92736: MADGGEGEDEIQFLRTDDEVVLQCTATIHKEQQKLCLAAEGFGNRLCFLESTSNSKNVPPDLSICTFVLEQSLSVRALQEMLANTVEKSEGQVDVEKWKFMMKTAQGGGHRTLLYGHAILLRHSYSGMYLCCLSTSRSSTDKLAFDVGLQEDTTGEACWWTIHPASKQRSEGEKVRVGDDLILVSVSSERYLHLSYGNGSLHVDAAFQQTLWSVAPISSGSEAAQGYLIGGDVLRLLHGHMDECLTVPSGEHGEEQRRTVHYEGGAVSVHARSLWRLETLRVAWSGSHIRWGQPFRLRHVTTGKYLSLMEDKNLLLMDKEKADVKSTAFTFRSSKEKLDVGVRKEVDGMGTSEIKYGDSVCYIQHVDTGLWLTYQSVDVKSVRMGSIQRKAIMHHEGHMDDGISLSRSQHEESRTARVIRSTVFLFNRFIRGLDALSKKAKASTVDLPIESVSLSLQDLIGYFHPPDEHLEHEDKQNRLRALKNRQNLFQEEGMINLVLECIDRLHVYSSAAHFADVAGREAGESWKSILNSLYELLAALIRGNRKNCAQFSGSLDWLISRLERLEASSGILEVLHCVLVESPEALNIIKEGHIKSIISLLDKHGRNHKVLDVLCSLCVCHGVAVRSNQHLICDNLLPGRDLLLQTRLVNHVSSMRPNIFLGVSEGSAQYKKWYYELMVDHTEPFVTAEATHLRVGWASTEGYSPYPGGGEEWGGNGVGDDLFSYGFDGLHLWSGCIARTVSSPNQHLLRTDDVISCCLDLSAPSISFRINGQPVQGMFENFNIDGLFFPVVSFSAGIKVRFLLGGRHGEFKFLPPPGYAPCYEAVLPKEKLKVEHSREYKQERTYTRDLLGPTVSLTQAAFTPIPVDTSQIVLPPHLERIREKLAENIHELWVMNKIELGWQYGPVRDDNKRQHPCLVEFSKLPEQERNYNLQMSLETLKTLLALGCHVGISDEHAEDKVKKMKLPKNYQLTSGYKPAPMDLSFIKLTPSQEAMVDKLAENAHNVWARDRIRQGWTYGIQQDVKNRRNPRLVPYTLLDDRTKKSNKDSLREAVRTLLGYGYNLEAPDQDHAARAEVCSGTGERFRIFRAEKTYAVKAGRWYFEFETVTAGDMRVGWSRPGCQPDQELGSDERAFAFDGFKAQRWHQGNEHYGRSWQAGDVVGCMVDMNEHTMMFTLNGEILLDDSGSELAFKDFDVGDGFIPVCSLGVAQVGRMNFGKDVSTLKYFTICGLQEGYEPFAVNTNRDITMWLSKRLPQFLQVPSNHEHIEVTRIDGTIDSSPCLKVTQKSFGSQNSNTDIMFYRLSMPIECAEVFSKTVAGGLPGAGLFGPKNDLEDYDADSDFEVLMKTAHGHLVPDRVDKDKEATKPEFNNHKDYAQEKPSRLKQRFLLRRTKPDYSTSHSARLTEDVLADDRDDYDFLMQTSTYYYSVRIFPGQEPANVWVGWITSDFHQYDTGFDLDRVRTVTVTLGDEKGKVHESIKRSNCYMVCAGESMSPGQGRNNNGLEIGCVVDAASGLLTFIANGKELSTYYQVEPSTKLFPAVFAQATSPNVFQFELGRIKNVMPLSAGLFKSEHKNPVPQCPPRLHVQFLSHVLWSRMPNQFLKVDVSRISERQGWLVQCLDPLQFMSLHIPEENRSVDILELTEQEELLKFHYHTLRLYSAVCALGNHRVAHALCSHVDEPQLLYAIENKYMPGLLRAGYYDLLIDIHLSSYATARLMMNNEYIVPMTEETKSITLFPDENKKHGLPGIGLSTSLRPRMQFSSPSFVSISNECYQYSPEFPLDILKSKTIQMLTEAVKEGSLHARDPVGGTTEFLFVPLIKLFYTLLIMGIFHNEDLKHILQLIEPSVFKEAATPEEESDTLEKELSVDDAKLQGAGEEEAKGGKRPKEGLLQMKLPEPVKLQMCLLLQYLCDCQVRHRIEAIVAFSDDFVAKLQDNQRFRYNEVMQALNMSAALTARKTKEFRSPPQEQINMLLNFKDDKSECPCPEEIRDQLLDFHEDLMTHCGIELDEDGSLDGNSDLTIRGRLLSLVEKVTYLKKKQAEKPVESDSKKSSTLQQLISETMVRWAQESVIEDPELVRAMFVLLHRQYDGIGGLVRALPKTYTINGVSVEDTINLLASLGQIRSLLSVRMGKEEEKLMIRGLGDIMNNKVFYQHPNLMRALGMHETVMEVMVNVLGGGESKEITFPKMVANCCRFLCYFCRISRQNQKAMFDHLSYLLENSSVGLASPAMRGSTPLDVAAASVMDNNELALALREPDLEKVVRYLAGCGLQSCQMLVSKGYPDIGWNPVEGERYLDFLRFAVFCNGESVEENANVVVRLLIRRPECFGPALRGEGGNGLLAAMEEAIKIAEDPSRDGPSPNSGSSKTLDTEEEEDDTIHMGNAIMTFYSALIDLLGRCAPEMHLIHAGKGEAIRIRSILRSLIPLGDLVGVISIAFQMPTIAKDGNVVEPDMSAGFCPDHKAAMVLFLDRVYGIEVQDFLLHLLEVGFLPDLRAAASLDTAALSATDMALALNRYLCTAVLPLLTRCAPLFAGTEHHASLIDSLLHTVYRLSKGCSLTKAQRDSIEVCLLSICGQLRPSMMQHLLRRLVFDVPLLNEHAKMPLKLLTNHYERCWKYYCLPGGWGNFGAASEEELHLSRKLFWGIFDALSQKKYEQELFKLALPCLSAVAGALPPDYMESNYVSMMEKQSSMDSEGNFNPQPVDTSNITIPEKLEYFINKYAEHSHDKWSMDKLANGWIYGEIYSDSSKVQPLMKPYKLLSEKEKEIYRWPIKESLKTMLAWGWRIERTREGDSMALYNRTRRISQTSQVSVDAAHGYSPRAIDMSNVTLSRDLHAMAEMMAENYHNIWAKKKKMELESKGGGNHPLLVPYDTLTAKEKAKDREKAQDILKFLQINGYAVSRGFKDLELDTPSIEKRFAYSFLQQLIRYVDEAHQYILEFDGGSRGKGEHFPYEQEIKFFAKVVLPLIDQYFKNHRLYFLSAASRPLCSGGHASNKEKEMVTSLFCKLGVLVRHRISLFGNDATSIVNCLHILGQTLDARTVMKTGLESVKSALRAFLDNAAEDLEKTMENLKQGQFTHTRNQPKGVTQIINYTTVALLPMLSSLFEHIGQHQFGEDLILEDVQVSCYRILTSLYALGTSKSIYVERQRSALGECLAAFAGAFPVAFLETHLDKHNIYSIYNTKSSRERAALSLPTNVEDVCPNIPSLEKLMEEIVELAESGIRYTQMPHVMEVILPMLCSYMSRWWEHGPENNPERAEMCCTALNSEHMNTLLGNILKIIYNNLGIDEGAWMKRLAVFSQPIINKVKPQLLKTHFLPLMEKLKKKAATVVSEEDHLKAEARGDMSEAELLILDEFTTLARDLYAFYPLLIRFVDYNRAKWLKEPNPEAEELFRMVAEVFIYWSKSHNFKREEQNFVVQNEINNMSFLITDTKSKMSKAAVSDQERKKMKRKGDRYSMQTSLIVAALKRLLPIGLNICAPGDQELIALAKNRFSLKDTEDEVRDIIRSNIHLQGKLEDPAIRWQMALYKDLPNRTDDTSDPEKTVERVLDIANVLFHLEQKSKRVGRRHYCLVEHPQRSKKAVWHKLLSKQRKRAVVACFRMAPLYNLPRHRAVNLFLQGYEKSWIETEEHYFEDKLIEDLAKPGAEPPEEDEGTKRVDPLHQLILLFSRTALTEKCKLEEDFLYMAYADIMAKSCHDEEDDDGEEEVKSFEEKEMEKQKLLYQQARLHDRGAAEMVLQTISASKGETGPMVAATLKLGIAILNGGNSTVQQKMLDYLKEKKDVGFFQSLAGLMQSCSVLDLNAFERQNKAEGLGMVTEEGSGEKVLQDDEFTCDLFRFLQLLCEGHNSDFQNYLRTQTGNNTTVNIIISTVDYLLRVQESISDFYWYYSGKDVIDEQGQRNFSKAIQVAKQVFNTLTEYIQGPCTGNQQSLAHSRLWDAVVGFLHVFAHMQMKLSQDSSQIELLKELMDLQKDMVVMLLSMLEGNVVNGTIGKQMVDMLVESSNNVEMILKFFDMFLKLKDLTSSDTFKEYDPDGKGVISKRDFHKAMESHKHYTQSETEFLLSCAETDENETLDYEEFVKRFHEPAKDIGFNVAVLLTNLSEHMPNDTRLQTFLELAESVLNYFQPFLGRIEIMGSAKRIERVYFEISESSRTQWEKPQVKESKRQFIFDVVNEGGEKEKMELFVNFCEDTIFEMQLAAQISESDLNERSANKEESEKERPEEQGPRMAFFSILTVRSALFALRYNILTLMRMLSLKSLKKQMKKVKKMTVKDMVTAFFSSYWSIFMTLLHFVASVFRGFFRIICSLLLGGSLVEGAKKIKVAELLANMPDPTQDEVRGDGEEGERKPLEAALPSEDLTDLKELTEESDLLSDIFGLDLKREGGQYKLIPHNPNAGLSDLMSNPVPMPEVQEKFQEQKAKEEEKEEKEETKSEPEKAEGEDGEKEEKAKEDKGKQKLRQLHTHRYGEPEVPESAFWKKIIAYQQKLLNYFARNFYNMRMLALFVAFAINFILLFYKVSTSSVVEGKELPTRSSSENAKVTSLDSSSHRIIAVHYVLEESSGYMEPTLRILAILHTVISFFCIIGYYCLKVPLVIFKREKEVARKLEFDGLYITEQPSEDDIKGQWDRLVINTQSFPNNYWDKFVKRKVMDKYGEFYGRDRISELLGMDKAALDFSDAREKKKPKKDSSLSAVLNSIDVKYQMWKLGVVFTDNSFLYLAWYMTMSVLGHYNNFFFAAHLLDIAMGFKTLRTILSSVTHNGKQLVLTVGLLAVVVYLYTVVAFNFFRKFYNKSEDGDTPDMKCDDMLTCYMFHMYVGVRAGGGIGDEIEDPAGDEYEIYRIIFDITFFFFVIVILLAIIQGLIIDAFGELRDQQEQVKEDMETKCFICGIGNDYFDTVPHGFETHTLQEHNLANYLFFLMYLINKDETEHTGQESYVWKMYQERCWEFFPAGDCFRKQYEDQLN
UniProt P68106: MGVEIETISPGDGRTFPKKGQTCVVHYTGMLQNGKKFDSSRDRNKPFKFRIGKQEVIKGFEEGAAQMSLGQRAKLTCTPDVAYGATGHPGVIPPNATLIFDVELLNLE
UniProt Q96SB3: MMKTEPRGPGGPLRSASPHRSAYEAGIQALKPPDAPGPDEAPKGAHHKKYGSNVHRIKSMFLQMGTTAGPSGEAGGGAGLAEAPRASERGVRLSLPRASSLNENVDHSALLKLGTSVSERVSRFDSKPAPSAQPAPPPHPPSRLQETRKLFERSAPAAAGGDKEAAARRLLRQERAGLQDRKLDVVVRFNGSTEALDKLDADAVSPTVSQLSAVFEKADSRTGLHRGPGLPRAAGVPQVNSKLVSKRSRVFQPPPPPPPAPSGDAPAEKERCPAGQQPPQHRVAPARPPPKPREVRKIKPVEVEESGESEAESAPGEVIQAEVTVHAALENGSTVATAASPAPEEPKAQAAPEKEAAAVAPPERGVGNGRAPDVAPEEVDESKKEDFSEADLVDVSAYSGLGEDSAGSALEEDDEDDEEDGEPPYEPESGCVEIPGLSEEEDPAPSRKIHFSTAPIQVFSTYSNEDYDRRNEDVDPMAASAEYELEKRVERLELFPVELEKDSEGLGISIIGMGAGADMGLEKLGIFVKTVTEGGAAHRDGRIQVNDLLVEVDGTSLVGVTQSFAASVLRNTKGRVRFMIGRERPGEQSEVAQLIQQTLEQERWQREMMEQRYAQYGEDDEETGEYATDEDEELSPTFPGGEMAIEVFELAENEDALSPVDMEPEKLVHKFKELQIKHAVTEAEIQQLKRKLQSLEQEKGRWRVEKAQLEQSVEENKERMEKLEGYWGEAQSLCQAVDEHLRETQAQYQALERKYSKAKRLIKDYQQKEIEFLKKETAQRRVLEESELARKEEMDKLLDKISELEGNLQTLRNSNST

Biological target: ryanodine receptor 2 (RyR2) (human (endogenous in SH-SY5Y)) (UniProt Q92736)
Test: co-IP; RyR2 immunoprecipitated from SH-SY5Y cell lysates with an RyR2-specific antibody in modified RIPA buffer (50 mM Tris-HCl pH 7.2, 0.9% NaCl, 5.0 mM NaF, 1.0 mM Na3VO4, 1% Triton X-100), overnight at 4 °C, protein A-Sepharose; immunoblot; cells: control, APPswe-expressing or Aβ-treated, with or without S107, ICI118-551, H-89, CGP 20712A, isoproterenol, β- or γ-secretase inhibitors

| Substance | binding |
| --- | --- |
| calstabin2 (FKBP12.6) (from UniProt P68106 1-108) | binds |
| spinophilin (from UniProt Q96SB3 1-817) | binds |
